According to the supplement of paper PMC10849652:
The list shows a part of the results.

Sequences of proteins named here, by UniProt entry; tags and fusion partners are left off. A change or cut given only in a name is not applied to a line headed by its entry.
UniProt Q9BT30: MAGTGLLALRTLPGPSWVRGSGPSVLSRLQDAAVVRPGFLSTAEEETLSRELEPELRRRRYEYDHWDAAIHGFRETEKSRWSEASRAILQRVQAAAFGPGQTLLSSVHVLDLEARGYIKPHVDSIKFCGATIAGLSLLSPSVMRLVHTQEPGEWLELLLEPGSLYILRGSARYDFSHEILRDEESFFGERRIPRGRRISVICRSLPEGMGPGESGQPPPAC
UniProt Q9BXX3: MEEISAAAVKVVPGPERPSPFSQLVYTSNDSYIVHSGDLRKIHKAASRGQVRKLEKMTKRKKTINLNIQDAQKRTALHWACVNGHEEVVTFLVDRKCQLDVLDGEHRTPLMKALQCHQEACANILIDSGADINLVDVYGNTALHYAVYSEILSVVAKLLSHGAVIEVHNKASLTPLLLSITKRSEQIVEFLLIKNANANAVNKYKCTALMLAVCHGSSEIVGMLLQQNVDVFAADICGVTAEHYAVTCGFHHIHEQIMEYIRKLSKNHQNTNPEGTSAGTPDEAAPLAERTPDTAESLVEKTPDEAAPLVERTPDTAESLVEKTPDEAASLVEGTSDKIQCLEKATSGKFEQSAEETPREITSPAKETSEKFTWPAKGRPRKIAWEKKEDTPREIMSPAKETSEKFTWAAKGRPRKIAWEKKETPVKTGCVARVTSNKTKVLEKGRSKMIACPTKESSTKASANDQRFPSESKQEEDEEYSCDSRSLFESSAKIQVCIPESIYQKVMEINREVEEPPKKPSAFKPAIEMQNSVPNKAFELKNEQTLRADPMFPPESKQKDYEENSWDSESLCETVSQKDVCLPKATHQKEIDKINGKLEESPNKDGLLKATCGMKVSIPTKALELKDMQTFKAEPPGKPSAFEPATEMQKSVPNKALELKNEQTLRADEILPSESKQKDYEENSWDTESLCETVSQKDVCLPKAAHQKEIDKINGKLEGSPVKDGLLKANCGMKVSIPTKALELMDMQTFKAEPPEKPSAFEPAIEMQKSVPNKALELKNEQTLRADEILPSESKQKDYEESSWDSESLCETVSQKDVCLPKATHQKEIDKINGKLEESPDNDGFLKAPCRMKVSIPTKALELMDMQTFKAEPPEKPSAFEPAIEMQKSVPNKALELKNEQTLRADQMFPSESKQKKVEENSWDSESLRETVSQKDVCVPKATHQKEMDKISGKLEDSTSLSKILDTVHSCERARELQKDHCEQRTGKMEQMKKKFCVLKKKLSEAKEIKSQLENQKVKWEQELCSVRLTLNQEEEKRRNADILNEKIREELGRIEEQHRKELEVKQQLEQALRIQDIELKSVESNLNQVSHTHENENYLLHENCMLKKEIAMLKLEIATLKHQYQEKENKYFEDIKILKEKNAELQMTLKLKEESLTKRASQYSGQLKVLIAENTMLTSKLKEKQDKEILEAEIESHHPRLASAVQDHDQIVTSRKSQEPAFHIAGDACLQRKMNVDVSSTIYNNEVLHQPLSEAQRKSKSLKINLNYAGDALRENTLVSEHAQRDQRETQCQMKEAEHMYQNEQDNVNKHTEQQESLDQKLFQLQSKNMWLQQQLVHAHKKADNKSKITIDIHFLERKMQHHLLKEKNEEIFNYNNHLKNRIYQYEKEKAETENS
UniProt Q68DC2: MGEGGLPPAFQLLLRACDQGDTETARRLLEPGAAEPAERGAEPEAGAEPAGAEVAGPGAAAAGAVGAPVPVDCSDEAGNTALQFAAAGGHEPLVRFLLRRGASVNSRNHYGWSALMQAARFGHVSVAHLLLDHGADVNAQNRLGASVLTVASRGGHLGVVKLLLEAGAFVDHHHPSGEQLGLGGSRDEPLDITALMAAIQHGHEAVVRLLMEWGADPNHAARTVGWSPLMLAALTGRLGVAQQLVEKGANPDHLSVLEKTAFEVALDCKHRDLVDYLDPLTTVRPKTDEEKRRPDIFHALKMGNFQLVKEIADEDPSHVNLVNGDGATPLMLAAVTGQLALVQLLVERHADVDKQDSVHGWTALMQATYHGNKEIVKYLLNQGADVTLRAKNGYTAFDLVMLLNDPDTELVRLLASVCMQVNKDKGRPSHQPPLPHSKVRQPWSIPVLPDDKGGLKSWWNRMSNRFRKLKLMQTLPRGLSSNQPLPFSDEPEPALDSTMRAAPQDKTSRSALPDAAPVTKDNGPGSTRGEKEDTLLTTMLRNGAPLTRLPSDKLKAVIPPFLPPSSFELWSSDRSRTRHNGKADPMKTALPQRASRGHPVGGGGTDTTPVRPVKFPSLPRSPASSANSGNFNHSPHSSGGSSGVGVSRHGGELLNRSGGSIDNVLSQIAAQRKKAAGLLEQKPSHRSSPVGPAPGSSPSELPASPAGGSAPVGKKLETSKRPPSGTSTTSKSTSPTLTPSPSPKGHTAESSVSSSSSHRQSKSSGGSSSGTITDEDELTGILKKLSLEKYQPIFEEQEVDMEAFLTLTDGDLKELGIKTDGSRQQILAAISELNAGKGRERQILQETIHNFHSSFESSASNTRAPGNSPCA
UniProt Q4VCS5: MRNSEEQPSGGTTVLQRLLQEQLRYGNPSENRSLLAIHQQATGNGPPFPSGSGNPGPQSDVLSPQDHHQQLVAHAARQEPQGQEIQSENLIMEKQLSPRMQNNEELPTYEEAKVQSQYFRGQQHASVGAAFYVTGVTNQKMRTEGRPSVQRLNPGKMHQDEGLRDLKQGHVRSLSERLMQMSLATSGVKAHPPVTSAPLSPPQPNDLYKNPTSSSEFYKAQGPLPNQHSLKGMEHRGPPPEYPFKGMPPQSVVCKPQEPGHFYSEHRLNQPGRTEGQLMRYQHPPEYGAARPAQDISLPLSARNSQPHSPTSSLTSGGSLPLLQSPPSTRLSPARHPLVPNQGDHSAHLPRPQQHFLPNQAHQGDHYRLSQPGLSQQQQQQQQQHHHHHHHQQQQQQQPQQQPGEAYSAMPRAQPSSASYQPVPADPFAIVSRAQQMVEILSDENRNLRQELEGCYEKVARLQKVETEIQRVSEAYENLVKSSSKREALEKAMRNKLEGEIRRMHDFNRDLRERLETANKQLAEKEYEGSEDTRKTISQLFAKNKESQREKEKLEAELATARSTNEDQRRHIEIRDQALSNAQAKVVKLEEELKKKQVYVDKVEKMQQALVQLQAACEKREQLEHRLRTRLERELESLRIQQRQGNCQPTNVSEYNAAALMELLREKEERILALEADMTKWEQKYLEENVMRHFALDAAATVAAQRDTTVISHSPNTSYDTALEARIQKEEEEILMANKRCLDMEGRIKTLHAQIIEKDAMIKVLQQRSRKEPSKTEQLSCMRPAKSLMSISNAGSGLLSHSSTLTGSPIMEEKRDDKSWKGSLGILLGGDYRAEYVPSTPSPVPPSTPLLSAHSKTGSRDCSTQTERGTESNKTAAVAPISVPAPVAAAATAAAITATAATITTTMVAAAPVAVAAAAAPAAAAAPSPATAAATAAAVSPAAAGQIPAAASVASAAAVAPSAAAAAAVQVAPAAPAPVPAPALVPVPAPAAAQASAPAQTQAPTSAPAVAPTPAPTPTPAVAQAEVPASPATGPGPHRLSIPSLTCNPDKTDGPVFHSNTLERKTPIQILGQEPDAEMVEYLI
UniProt Q9H8T0: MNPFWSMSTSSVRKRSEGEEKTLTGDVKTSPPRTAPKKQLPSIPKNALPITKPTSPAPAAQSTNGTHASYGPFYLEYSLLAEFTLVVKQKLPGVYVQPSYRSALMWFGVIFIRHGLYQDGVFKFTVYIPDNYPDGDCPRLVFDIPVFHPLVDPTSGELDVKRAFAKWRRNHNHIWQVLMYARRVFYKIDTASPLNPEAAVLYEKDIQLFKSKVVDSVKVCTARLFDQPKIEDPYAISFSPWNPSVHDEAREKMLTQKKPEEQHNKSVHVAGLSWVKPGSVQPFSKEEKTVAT
UniProt P13196: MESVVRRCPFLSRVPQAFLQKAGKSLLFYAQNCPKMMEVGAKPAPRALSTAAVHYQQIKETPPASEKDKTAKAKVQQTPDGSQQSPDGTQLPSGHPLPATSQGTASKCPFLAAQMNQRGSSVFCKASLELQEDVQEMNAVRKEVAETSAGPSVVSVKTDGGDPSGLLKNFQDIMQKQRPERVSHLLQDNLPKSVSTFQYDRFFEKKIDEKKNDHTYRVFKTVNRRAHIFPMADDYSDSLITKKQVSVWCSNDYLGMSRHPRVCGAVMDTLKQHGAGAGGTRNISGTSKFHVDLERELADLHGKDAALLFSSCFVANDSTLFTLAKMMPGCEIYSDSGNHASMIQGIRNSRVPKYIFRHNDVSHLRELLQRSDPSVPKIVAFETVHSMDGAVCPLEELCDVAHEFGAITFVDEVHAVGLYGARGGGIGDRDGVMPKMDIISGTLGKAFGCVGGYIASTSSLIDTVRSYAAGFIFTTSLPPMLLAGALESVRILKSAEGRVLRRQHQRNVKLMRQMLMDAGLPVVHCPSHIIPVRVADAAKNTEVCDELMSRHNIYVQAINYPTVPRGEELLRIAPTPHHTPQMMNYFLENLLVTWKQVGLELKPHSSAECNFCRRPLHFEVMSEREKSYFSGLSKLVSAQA
UniProt Q9ULJ7: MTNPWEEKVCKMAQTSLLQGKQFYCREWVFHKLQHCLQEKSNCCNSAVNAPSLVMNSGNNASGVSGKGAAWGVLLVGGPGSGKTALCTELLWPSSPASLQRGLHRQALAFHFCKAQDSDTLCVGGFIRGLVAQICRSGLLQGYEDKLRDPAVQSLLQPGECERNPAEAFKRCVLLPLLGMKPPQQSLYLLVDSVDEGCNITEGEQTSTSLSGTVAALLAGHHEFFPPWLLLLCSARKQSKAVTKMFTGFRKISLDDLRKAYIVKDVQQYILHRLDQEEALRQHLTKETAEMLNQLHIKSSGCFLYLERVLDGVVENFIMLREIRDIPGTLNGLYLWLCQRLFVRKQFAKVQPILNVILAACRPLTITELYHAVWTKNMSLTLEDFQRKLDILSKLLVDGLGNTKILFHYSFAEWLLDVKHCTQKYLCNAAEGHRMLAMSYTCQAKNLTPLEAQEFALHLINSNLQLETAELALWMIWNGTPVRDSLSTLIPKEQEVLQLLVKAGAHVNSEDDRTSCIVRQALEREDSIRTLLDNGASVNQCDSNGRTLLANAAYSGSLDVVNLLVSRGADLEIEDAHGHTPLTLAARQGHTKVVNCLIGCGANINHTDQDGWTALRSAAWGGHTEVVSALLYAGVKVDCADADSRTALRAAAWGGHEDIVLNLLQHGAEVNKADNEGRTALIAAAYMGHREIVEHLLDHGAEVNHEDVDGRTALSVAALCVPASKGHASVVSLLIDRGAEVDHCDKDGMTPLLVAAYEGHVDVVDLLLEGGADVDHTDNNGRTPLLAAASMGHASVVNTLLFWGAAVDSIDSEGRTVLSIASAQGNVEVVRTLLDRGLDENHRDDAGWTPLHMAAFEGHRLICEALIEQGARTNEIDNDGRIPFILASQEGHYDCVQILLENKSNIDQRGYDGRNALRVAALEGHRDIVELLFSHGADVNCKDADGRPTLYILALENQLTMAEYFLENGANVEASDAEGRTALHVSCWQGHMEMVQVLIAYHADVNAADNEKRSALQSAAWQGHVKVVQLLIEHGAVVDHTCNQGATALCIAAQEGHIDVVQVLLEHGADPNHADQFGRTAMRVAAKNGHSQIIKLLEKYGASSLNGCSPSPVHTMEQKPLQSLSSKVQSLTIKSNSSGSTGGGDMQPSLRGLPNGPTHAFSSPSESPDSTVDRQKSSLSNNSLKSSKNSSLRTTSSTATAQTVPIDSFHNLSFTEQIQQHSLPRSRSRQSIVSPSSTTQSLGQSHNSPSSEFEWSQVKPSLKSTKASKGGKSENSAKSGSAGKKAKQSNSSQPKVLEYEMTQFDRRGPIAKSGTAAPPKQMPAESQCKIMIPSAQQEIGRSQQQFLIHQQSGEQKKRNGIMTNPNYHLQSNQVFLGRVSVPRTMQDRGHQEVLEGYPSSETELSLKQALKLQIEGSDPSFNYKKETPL
UniProt P49189: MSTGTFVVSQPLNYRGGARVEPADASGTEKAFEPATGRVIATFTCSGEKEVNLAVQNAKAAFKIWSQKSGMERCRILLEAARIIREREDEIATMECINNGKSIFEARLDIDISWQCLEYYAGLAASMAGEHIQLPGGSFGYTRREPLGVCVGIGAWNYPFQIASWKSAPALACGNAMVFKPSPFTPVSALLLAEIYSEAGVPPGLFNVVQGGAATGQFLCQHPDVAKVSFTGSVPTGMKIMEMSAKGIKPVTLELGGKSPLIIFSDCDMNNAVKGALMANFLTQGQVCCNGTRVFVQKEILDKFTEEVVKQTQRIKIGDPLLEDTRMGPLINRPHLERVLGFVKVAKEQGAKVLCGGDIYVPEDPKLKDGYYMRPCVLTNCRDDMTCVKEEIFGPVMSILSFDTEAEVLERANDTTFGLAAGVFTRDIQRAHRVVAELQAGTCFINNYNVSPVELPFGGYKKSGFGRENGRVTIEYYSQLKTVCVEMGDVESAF

compound: C1CCN(C1)C(=O)NC2=CC=CC(=C2)NC3=NC=C(C(=N3)NCCC4=CN=CN4)Br; assay: log2 fold change, soluble protein after heating vs DMSO (PISA); higher = thermal stabilisation; K562 lysate, 10 uM; active = over 0.2 and 3.5 SD of the protein, either way, in both replicates (recomputed)
In short: (§1)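 Soluble protein was defined as the supernatant remaining after 21,000xg for 90 min, following pooling of heated aliquots and adjustment to 0.5% NP-40 at 4°C. Before that, crude K562 extract at 1 mg/mL protein in PBS pH 7.4 with 1 mM MgCl2 was treated with 10 μM compound for 30 min and heated for 3 min across 48°C-58°C. Quantification used TMTpro 16plex LC-MS/MS with channel sums equalised, and values are log-two fold changes in thermal stability relative to solvent controls from duplicates.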

log2 fold change, inactive:
ANKRD13B (UniProt Q86YJ7) 0.048, ALKBH7 (UniProt Q9BT30) -0.033, ANAPC13 (UniProt Q9BS18) 0.262, ANAPC15 isoform 2 (UniProt P60006) 0.194, ANP32E isoform 3 (UniProt Q9BTT0) 0.075, ALDH1A3 (UniProt P47895) 0.38, ANKRD16 (UniProt Q6P6B7) -0.126, ANXA6 (UniProt E5RK69) -0.098, ANKS3 (UniProt Q6ZW76) -0.016, ANKRD12 (UniProt Q6UB98) 0.097, ANKRD30A (UniProt Q9BXX3) 0.415, ANKS6 isoform 4 (UniProt Q68DC2) -0.054, ANKRD31 (UniProt Q8N7Z5) -0.099, AMOT (UniProt Q4VCS5) 0.058, AKTIP isoform 2 (UniProt Q9H8T0) 0.018, ALAS1 (UniProt P13196) 0.014, ANKRD50 (UniProt Q9ULJ7) -0.037

compound: C1CN(CCC1(CC2=CC=C(C=C2)Cl)N)C3=NC=NC4=C3C=CN4; assay: as above
In short: as §1

log2 fold change, inactive:
ANKRD13B (UniProt Q86YJ7) -0.071, ALKBH7 (UniProt Q9BT30) 0.027, ANAPC13 (UniProt Q9BS18) -0.077, ANAPC15 isoform 2 (UniProt P60006) -0.046, ANP32E isoform 3 (UniProt Q9BTT0) -0.01, ALDH1A3 (UniProt P47895) 0.079, ANKRD16 (UniProt Q6P6B7) 0.012, ANXA6 (UniProt E5RK69) 0.054, ANKS3 (UniProt Q6ZW76) 0.006, ANKRD12 (UniProt Q6UB98) 0.133, ANKRD30A (UniProt Q9BXX3) 0.144, ANKS6 isoform 4 (UniProt Q68DC2) 0.011, ANKRD31 (UniProt Q8N7Z5) 0.079, AMOT (UniProt Q4VCS5) -0.031, AKTIP isoform 2 (UniProt Q9H8T0) 0.166, ALAS1 (UniProt P13196) -0.122, ANKRD50 (UniProt Q9ULJ7) -0.015

compound: C1COCCN1CCN2C3=CC=CC=C3N=C2NC(=O)C4=CC(=CC=C4)[N+](=O)[O-] [IRAK-1-4 Inhibitor I]; assay: as above
In short: as §1

log2 fold change, inactive:
ANKHD1 (UniProt D6RHC4) -0.025, ANK2 (UniProt Q01484) 0.06, ALKBH7 (UniProt Q9BT30) -0.04, ALDH18A1 isoform 2 (UniProt P54886) 0.046, ANKRD13C (UniProt Q8N6S4) -0.095, AP2M1 (UniProt C9JTK4) -0.048, ANGEL1 (UniProt Q9UNK9) 0.041, ALDH9A1 (UniProt P49189) 0.029, ALDH3A1 (UniProt P30838) 0.059, ANKIB1 (UniProt Q9P2G1) -0.052, AP1B1 isoform 3 (UniProt Q10567) 0.002, ANKRD12 (UniProt Q6UB98) 0.119, ANKRD30A (UniProt Q9BXX3) -0.176, ANKS6 isoform 4 (UniProt Q68DC2) -0.056, ANAPC11 (UniProt Q9NYG5) -0.051, ANO9 (UniProt A1A5B4) 0.138, AMOT (UniProt Q4VCS5) 0.07, AKTIP isoform 2 (UniProt Q9H8T0) 0.095, ALAS1 (UniProt P13196) -0.036, ALDH3A2 isoform 2 (UniProt P51648) -0.376, ANKRD50 (UniProt Q9ULJ7) -0.045
